Test results: the supplement of paper PMC11732987, “Enantioselective OTUD7B fragment discovery through chemoproteomics screening and high-throughput optimisation” (Communications Chemistry, 2025)
The other results are listed elsewhere or left out. The data scatter; read single values as rough.

These molecules were tested against T1, PER1 C590 (UniProt O15534) (assay: log2 mean competition ratio of IA-DTB cysteine labelling (DMSO/compound) (log2 ratio); higher = stronger cysteine engagement by compound). Conditions: 50 µM; treatment time: 4 h; cell line lysate: HEK293T.
T1 sequence (whole entry): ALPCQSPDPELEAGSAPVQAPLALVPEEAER
Experimental: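 IA-DTB competitive cysteine chemoproteomics in HEK293T RIPA lysate. Lysates were treated with compound 29 or 30 at 50 or 200 µM for 4 h, then IA-DTB (500 µM, 1 h), trypsin-digested, NeutrAvidin-enriched and analysed by diaPASEF. Competition ratio = intensity DMSO / intensity compound (n=4 treated, n=64 DMSO); binding: mean log2 CR ≥ 1 and p ≤ 0.05 plus QC filters. Target is the cysteine site.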

| Compound | log2 mean competition ratio |
| --- | --- |
| O=C(CCl)N[C@@H]1CCCc2ccccc21 | -0.44 |
| O=C(CCl)N[C@H]1CCCc2ccccc21 | 0.202 |

Same assay, conditions: 200 µM; treatment time: 4 h; cell line lysate: HEK293T

| Compound | log2 mean competition ratio |
| --- | --- |
| O=C(CCl)N[C@@H]1CCCc2ccccc21 | -0.425 |
| O=C(CCl)N[C@H]1CCCc2ccccc21 | -0.497 |
